Some entries share one result that the patent states for a list of compounds.
tested on: larvae of the mustard beetle (Phaedon cochleariae); assay: Phaedon test (PHAECO spray treatment); format: in vivo; conditions: application rate 500 g/ha, after 7 d
Experimental: Phaedon Test ([…] Spray Treatment) [table] To produce a suitable preparation of active compound, 1 part by weight of active compound is mixed with the stated amounts of solvents and emulsifier, and the concentrate is diluted with emulsifier-containing water to the desired concentration. Discs of chinese cabbage (Brassica pekinensis) are sprayed with an active compound preparation of the desired concentration and, after drying, populated with larvae of the mustard beetle (Phaedon cochleariae). After the desired period of time, the effect in % is determined 100% means that all beetle larvae have been killed; 0% means that none of the beetle larvae have been killed.

SMILES	activity (effect in %, beetle larvae killed)
Nc1c(-c2cc(Br)cc(Br)c2)c(C(F)(F)F)nn1-c1ncc(F)cn1 [Example 43-11]	≥ 80%
Nc1c(-c2ccc(F)c(F)c2)c(C(F)(F)F)nn1-c1ncc(F)cn1 [Example 43-10]	≥ 80%
Fc1ccc(-c2c(C(F)(F)F)nn(-c3ncccn3)c2NCc2ccccc2)cc1Cl [Example 27-155]	≥ 80%
COc1cc(-c2c(C(F)(F)F)nn(-c3ncccn3)c2NCc2ccccc2)ccc1C [Example 27-159]	≥ 80%
Nc1c(-c2ccc(I)cc2)c(C(F)(F)C(F)(F)F)nn1-c1ncccn1 [Example 18-51]	≥ 80%
CC(C)c1ccc(-c2c(C(F)(F)F)nn(-c3ncccn3)c2N)cc1 [Example 5-5]	≥ 80%
COc1c(F)cc(-c2c(C(F)(F)F)nn(-c3ncccn3)c2N(C(C)=O)C(C)=O)cc1F [Example 29-158]	≥ 80%
CCNc1c(-c2ccc(C)c(OC)c2)c(C(F)(F)F)nn1-c1ncccn1 [Example 12-104]	≥ 80%
CCc1nn(-c2ncccn2)c(N)c1-c1ccc(Cl)cc1 [Example 16-27]	≥ 80%
CC(=O)N(C(C)=O)c1c(-c2ccc(Cl)cc2)c(C(F)(F)F)nn1-c1ncccn1 [Example 29-26]	≥ 80%
Nc1c(-c2ccc(Br)cc2)c(Cc2cccc(Cl)c2)nn1-c1ncccn1 [Example 39-48]	≥ 80%
COc1ncc(-c2c(C(F)(F)F)nn(-c3ncccn3)c2N)cc1Cl [Example 32-54]	≥ 80%
Nc1c(-c2ccc(Br)cc2)c(CCCc2ccccc2)nn1-c1ncccn1 [Example 41-86]	≥ 80%
Cc1nn(-c2ncccn2)c(N)c1-c1ccc(F)cc1 [Example 16-4]	≥ 80%
Nc1c(-c2ccc(Br)cc2)c(Cc2cccc(C(F)(F)F)c2)nn1-c1ncccn1 [Example 39-162]	≥ 80%
COC(C)c1nn(-c2ncccn2)c(N)c1-c1ccc(Br)cc1 (racemic) [Example 17-124]	≥ 80%
CCOC(=O)CNc1c(-c2ccc(Cl)cc2)c(C)nn1-c1ncccn1 [Example 26-116]	≥ 80%
CCNc1c(-c2cccc(I)c2)c(C(F)(F)F)nn1-c1ncccn1 [Example 12-12]	≥ 80%
CNc1c(-c2ccc(Cl)cc2)c(C(F)(F)F)nn1-c1ncccn1 [Example 11-7]	≥ 80%
CCCCNc1c(-c2ccc(Cl)cc2)c(C)nn1-c1ncccn1 [Example 26-125]	≥ 80%

SMILES	activity (effect in %, beetle larvae killed)
CC(F)(F)c1nn(-c2ncccn2)c(N)c1-c1ccc(Cl)cc1Cl [Example 18-34]	≥ 80%
Fc1c(Cl)cccc1-c1c(C(F)(F)F)nn(-c2ncccn2)c1NCc1ccccc1 [Example 27-157]	≥ 80%
Nc1c(-c2ccc(Br)cc2)c(Cc2ccccc2F)nn1-c1ncccn1 [Example 39-86]	≥ 80%
Nc1c(-c2ccc(Br)cc2)c(Cc2ccccc2Br)nn1-c1ncccn1 [Example 39-219]	≥ 80%
CCCNc1c(-c2ccc(Cl)cc2)c(C)nn1-c1ncccn1 [Example 26-7]	≥ 80%
Cc1cccc(Cc2nn(-c3ncccn3)c(N)c2-c2ccc(Br)cc2)c1 [Example 40-29]	≥ 80%
Nc1c(-c2ccc(Br)cc2)c(Cc2ccc(F)cc2)nn1-c1ncccn1 [Example 39-124]	≥ 80%
CC(C)(C)Cc1nn(-c2ncccn2)c(N)c1-c1ccc(Br)cc1 [Example 16-162]	≥ 80%
FC(F)(F)c1nn(-c2ncccn2)c(NCc2ccccc2)c1-c1ccc(Cl)cc1 [Example 27-45]	≥ 80%
COc1ccc(Cc2nn(-c3ncccn3)c(N)c2-c2ccc(Br)cc2)cc1 [Example 40-124]	≥ 80%
CCCCc1nn(-c2ncccn2)c(N)c1-c1ccc(Br)cc1 [Example 16-87]	≥ 80%
COc1c(F)cc(-c2c(C(F)(F)F)nn(-c3ncccn3)c2NCc2ccccc2)cc1F [Example 27-163]	≥ 80%
Nc1c(-c2ccc(Br)cc2F)c(C(F)(F)F)nn1-c1ncc(F)cn1 [Example 43-09]	≥ 80%
CN(C)c1ccc(-c2c(C(F)(F)F)nn(-c3ncccn3)c2N)cn1 [Example 32-52]	≥ 80%
Cc1nn(-c2ncccn2)c(NCC(C)C)c1-c1ccc(Cl)cc1 [Example 26-140]	≥ 80%
CC(=O)Nc1c(-c2ccc(Cl)cc2)c(C)nn1-c1ncccn1 [Example 28-7]	≥ 80%
CCOC(=O)Nc1c(-c2ccc(Cl)cc2)c(C(F)(F)F)nn1-c1ncccn1 [Example 29-64]	≥ 80%
Cc1ccccc1Cc1nn(-c2ncccn2)c(N)c1-c1ccc(Br)cc1 [Example 40-10]	≥ 80%
FC(F)(F)c1nn(-c2ncccn2)c(NCc2ccccc2)c1-c1ccc(I)cc1 [Example 27-51]	≥ 80%
Cc1nn(-c2ncccn2)c(N)c1-c1ccc(Cl)cc1Cl [Example 16-15]	≥ 80%

SMILES	activity (effect in %, beetle larvae killed)
CC(Cc1nn(-c2ncccn2)c(N)c1-c1ccc(Br)cc1)C(F)(F)F (stereo not drawn) [Example 18-219]	≥ 80%
FC(F)(F)c1nn(-c2ncccn2)c(NCc2ccccc2)c1-c1cccc(I)c1 [Example 27-50]	≥ 80%
COc1cc(-c2c(C(F)(F)F)nn(-c3ncccn3)c2N(C(C)=O)C(C)=O)ccc1C [Example 29-159]	≥ 80%
FC(F)Oc1ccc(-c2c(C(F)(F)F)nn(-c3ncccn3)c2NCc2ccccc2)cc1 [Example 27-156]	≥ 80%
CCOCc1nn(-c2ncccn2)c(N)c1-c1ccc(Br)cc1 [Example 17-48]	≥ 80%
Nc1c(-c2ccc(Br)cc2)c(Cc2ccccc2)nn1-c1ncccn1 [Example 39-10]	≥ 80%
Nc1c(-c2ccc(Oc3ncc(C(F)(F)F)cc3Cl)cc2)c(C(F)(F)F)nn1-c1ncccn1 [Example 5-50]	≥ 80%
FCc1nn(-c2ncccn2)c(NCc2ccccc2)c1-c1cc(Cl)cc(Cl)c1 [Example 42-39]	≥ 80%
CCCc1nn(-c2ncccn2)c(N)c1-c1ccc(Br)cc1 [Example 16-49]	≥ 80%
Cc1nn(-c2ncccn2)c(N)c1-c1ccc(F)cc1Cl [Example 16-18]	≥ 80%
CC(C)(C)c1ccc(-c2c(C(F)(F)F)nn(-c3ncccn3)c2N)cc1 [Example 5-9]	≥ 80%
Nc1c(-c2ccc(Br)cc2)c(CCC(F)(F)F)nn1-c1ncccn1 [Example 18-143]	≥ 80%
Nc1c(-c2ccc(Br)cc2)c(Cc2ccc(Cl)cc2Cl)nn1-c1ncccn1 [Example 39-200]	≥ 80%
Nc1c(-c2ccc(Cl)cc2)c(C2CC2)nn1-c1ncccn1 [Example 35-07]	≥ 80%
Cc1cccc(-c2c(C(F)(F)F)nn(-c3ncccn3)c2N)c1 [Example 6-1]	≥ 80%
Nc1c(-c2ccc(Br)cc2)c(Cc2cccc(F)c2)nn1-c1ncccn1 [Example 39-105]	≥ 80%
FC(F)(F)c1nn(-c2ncccn2)c(NCc2ccc(Cl)cc2)c1-c1ccc(Cl)cc1 [Example 27-140]	≥ 80%
CSCc1nn(-c2ncccn2)c(N)c1-c1ccc(Br)cc1 [Example 17-67]	≥ 80%

tested on: caterpillars of the army worm (Spodoptera frugiperda); assay: Spodoptera frugiperda test (SPODFR spray treatment); format: in vivo; conditions: application rate 500 g/ha, after 7 d
Experimental: Spodoptera frugiperda Test (SPODFR Spray Treatment) [table] To produce a suitable preparation of active compound, 1 part by weight of active compound is mixed with the stated amounts of solvents and emulsifier, and the concentrate is diluted with emulsifier-containing water to the desired concentration. Discs of maize leaves (Zea mays) are sprayed with an active compound preparation of the desired concentration and, after drying, populated with caterpillars of the army worm (Spodoptera frugiperda). After the desired period of time, the effect in % is determined 100% means that all caterpillars have been killed; 0% means that none of the caterpillars have been killed.

SMILES	activity (effect in %, caterpillars killed)
Nc1c(-c2cc(Br)cc(Br)c2)c(C(F)(F)F)nn1-c1ncc(F)cn1 [Example 43-11]	≥ 80%
Fc1ccc(-c2c(C(F)(F)F)nn(-c3ncccn3)c2NCc2ccccc2)cc1Cl [Example 27-155]	≥ 80%
Nc1c(-c2ccc(I)cc2)c(C(F)(F)C(F)(F)F)nn1-c1ncccn1 [Example 18-51]	≥ 80%
CC(=O)Nc1c(-c2cc(Cl)cc(Cl)c2)c(C(F)(F)F)nn1-c1ncccn1 [Example 29-19]	≥ 80%
CC(=O)Nc1c(-c2ccc(F)c(Cl)c2)c(C(F)(F)F)nn1-c1ncccn1 [Example 29-157]	≥ 80%
CC(=O)N(C(C)=O)c1c(-c2ccc(Br)cc2)c(C(F)(F)F)nn1-c1ncccn1 [Example 29-29]	≥ 80%
CC(=O)Nc1c(-c2cc(Cl)cc(Cl)c2)c(C(F)F)nn1-c1ncccn1 [Example 42-135]	≥ 80%
CCNc1c(-c2ccc(Cl)c(C(F)(F)F)c2)c(C(F)(F)F)nn1-c1ncccn1 [Example 12-99]	≥ 80%
C[C@@H](F)c1nn(-c2ncc(F)cn2)c(N)c1-c1cc(Cl)cc(C(F)(F)F)c1 [Example 43-01]	≥ 80%
CCN(CC)c1c(-c2cc(Cl)cc(Cl)c2)c(C(F)F)nn1-c1ncccn1 [Example 42-77]	≥ 80%
CCC(=O)N(C(=O)CC)c1c(-c2ccc(Br)cc2)c(C(F)(F)F)nn1-c1ncccn1 [Example 29-143]	≥ 80%
